# Assay results reported in publication PMC10958842.
# Results are given in words; binding and its absence hold for the method and conditions named. In cells and extracts the contact can be indirect. Some results given as binding are weak or reduced against the parent protein; the word gives no strength.
# T1: THOC6 (human (endogenous in GBC cells)) (UniProt Q86W42)
# T1 sequence: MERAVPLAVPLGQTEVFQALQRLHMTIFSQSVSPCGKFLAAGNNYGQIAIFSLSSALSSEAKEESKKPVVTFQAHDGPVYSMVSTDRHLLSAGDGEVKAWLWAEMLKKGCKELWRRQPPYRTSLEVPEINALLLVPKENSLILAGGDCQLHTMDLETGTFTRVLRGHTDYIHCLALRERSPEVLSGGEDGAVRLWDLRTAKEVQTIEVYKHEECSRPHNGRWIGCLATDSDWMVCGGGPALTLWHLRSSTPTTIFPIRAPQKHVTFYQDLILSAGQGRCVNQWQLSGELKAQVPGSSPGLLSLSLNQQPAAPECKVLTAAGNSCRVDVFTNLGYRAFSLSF
# Biological target: T1, THOC6 (human (endogenous in GBC cells))
# Assay: co-IP; antibody on protein A/G magnetic beads incubated with cell lysate at 4 °C overnight, washed three times with lysis buffer, western blot; GBC cells (NOZ); also after knockdown or overexpression of lncBCL2L11 in the cells and after exogenous reduction or increase of lncBCL2L11 in the lysate
binder,measurement,value
"THOC5 (protein, UniProt Q13769 1-683) MSSESSKKRKPKVIRSDGAPAEGKRNRSDTEQEGKYYSEEAEVDLRDPGRDYELYKYTCQELQRLMAEIQDLKSRGGKDVAIEIEERRIQSCVHFMTLKKLNRLAHIRLKKGRDQTHEAKQKVDAYHLQLQNLLYEVMHLQKEITKCLEFKSKHEEIDLVSLEEFYKEAPPDISKAEVTMGDPHQQTLARLDWELEQRKRLAEKYRECLSNKEKILKEIEVKKEYLSSLQPRLNSIMQASLPVQEYLFMPFDQAHKQYETARHLPPPLYVLFVQATAYGQACDKTLSVAIEGSVDEAKALFKPPEDSQDDESDSDAEEEQTTKRRRPTLGVQLDDKRKEMLKRHPLSVMLDLKCKDDSVLHLTFYYLMNLNIMTVKAKVTTAMELITPISAGDLLSPDSVLSCLYPGDHGKKTPNPANQYQFDKVGILTLSDYVLELGHPYLWVQKLGGLHFPKEQPQQTVIADHSLSASHMETTMKLLKTRVQSRLALHKQFASLEHGIVPVTSDCQYLFPAKVVSRLVKWVTVAHEDYMELHFTKDIVDAGLAGDTNLYYMALIERGTAKLQAAVVLNPGYSSIPPVFQLCLNWKGEKTNSNDDNIRAMEGEVNVCYKELCGPWPSHQLLTNQLQRLCVLLDVYLETESHDDSVEGPKEFPQEKMCLRLFRGPSRMKPFKYNHPQGFFSHR",binding,binds
